# PubChem BioAssay AID1508597 – Cure First | 2020
# Screen: 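Genes whose silencing sensitises or protects ovarian cancer cells against rucaparib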 (primary screen)
# Cell system: human ovarian carcinoma lines grown from tumours: OCI-P5x (papillary serous) and OCI-C5x (clear cell)
# Knock-down reagent: siRNA pool against human genes, 1.25 pmol siRNA per well
# Time to read-out: 72 h or 96 h, depending on the cell culture
# Treatment: rucaparib 20 µM (about IC30) or vehicle, present until read-out
# Rucaparib or vehicle: Vehicle
# Cell line: OCI-C5x (clear cell)
# Measured: 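ATP luminescence measured at 72 or 96 h according to the culture, then normalised and expressed as percent viability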
# Direction: viability, normalised: higher = more viable cells remaining
# Active means: 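Active when normalised viability falls below 80 percent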
# Meaning of the calls: active = viability under 80%; inactive = viability 80% or more
# Shown is an unselected part of the about 2,100 reagents, under one of the conditions tested. 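Calls flag viability under 80% in either arm, not effects specific to rucaparib; the reference for percent is not stated.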 Unmarked entries are inactive. Some reagents were tested in more than one well and are listed for each. Not given: the 100% reference.
target,technical replicate,"viability, normalised (%)"
WNT7A (Wnt family member 7A),1,56.9 (active)
WNT7A (Wnt family member 7A),2,56.3 (active)
WNT7A (Wnt family member 7A),3,69 (active)
PDCD10 (programmed cell death 10),1,67.4 (active)
PDCD10 (programmed cell death 10),2,63.7 (active)
PDCD10 (programmed cell death 10),3,46.4 (active)
NRXN3 (neurexin 3),1,51.9 (active)
NRXN3 (neurexin 3),2,44.1 (active)
NRXN3 (neurexin 3),3,50.5 (active)
PML (PML nuclear body scaffold),1,43.2 (active)
PML (PML nuclear body scaffold),1,57.4 (active)
PML (PML nuclear body scaffold),2,29.8 (active)
PML (PML nuclear body scaffold),2,44.7 (active)
PML (PML nuclear body scaffold),3,52.2 (active)
PML (PML nuclear body scaffold),3,36.6 (active)
ITGA4 (integrin subunit alpha 4),1,38.9 (active)
ITGA4 (integrin subunit alpha 4),2,42 (active)
ITGA4 (integrin subunit alpha 4),3,50.9 (active)
DHX30 (DExH-box helicase 30),1,57.8 (active)
DHX30 (DExH-box helicase 30),2,52.1 (active)
DHX30 (DExH-box helicase 30),3,46.7 (active)
SLK (STE20 like kinase),1,60.4 (active)
SLK (STE20 like kinase),2,47.2 (active)
SLK (STE20 like kinase),3,43.5 (active)

Next part; the last 3 above are carried over.
target,technical replicate,"viability, normalised (%)"
SLK (STE20 like kinase),1,60.4 (active)
SLK (STE20 like kinase),2,47.2 (active)
SLK (STE20 like kinase),3,43.5 (active)
SMC4 (structural maintenance of chromosomes 4),1,38.3 (active)
SMC4 (structural maintenance of chromosomes 4),2,39.1 (active)
SMC4 (structural maintenance of chromosomes 4),3,35.2 (active)
NCOA3 (nuclear receptor coactivator 3),1,48.3 (active)
NCOA3 (nuclear receptor coactivator 3),2,38.2 (active)
NCOA3 (nuclear receptor coactivator 3),3,42 (active)
GSK3B (glycogen synthase kinase 3 beta),1,53 (active)
GSK3B (glycogen synthase kinase 3 beta),1,45.1 (active)
GSK3B (glycogen synthase kinase 3 beta),2,55.5 (active)
GSK3B (glycogen synthase kinase 3 beta),2,46.2 (active)
GSK3B (glycogen synthase kinase 3 beta),3,62.6 (active)
GSK3B (glycogen synthase kinase 3 beta),3,53.2 (active)
H4C2 (H4 clustered histone 2),1,74.1 (active)
H4C2 (H4 clustered histone 2),2,57.2 (active)
H4C2 (H4 clustered histone 2),3,51.1 (active)
